In US11833125B2, “Pharmaceutical composition for controlled release of treprostinil” (Pharmosa Biopharm Inc., priority 2018, dated 2023):
Some entries share one result that the patent states for a list of compounds.

Experiment: In vivo pharmacokinetics study, intra-tracheal administration, plasma treprostinil by LC-MS/MS
Set-up: species or system Sprague-Dawley rats
Settings: rat, FIG. 2
Experimental: In this in vivo PK study, Sprague-Dawley rats (purchased from BioLASCO Taiwan Co., Ltd.) were anaesthetized with isoflurane, and positioned securely on its back to an arched platform in a dorsal position at a 45° to 50° plane using a ribbon hooked around upper incisors. A microspray aerosol tip (Microsprayer, PennCentury, Philadelphia, USA) was inserted to the tracheal bifurcation of each rat, and a test sample (i.e., compositions in Table 2 or free treprostinil solution) was administered intra-tracheally to each rat at a given dose using a high-pressure syringe that is attached to the microspray aerosol device. […] The blood sample was then centrifuged at approximately 2500×g for 15 min and at 4±2° C. within 1 hour of collection, so as to separate the plasma from the blood cells. Approximately 0.1 mL of the obtained plasma sample from each rat was added into a new storage tube and stored in a freezer with a temperature maintained at −70±2° C. […] The obtained supernatant (150 μL) was mixed with an equal volume of H2O and analyzed by liquid chromatography-tandem mass spectrometry (LC-MS/MS) to determine the treprostinil concentration in the plasma sample of the rat. […]

With `CCCCC[C@H](O)CC[C@@H]1[C@H]2Cc3cccc(OCC(=O)O)c3C[C@H]2C[C@H]1O` [free treprostinil, treprostinil] the “AUCt/AUCinf within 2 hours of administration” value was > 60%.
